Reference: paper PMC4154660
Results are given in words; binding and its absence hold for the method and conditions named. Binding seen in cells or lysates may run through a third protein. These calls come from enrichment with a bait or labelling near it, and not all partners need be listed.

Protein sequences, listed by entry. Tags and fused reporters are not part of them. Lines headed by an entry give the natural chain unless they say otherwise; changes in a name come on top.
UniProt F7VLP8: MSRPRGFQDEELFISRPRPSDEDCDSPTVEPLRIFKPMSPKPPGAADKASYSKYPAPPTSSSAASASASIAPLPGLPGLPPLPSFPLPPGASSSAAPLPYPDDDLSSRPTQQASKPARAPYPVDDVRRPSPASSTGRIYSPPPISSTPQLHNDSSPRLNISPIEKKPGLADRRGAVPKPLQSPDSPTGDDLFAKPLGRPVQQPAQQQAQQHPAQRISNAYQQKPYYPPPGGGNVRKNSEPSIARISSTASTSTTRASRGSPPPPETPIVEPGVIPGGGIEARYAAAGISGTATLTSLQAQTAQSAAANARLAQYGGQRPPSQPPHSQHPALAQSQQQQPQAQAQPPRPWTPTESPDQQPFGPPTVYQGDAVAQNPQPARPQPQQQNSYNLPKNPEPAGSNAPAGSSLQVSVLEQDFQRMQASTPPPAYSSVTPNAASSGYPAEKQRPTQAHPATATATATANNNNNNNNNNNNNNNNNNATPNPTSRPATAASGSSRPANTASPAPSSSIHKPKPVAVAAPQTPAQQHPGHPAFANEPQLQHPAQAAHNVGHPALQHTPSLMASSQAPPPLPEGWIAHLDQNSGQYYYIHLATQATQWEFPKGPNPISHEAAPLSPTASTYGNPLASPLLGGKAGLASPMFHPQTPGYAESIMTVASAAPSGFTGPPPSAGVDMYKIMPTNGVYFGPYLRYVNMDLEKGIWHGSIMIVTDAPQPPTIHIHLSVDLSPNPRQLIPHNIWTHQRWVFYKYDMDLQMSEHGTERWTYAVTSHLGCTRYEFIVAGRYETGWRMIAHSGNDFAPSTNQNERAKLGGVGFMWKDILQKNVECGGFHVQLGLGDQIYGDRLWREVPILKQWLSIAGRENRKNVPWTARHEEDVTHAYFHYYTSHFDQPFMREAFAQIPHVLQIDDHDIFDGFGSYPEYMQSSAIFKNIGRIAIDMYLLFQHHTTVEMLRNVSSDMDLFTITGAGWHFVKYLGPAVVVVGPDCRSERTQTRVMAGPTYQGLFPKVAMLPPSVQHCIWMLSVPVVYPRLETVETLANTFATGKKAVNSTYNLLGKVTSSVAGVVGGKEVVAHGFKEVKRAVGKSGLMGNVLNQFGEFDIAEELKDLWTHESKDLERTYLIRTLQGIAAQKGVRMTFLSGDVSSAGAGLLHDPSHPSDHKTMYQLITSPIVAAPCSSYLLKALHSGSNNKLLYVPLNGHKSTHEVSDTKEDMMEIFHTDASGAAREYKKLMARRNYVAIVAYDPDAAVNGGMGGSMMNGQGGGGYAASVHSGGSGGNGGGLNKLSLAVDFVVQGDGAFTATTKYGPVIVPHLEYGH

B1: protein kinase C (PKC1, endogenous) (enzyme, UniProt F7W233 1-1146)
chain: MNDEDKVHDISKKIEREKALINAAQAMRQQTNNEQVRSKLDTQMREGRRNLEFFEEKLRELQMRRLGHGVDNMSLGASPMSGSHRQSVDDFEGHGAPTPPPKEGGRGHSSHQSQGSGPLMPASGPYPGGPPDSAVPRARPNYTRLDLIKFDTPHLGPRIQLMLSQIQFKLNVEEQYLKGIEKMVQLYQMEGDKKSKLDAAAKRVESKQKIVLLKQALKRYEELHIDIDVDGPDDDSINLPALRKPLSGTLSIRILAVKDVDHAPLGRFARSPETFIAVKAEDIIVARTRPSRNDRWEAEFHTFPVDKTNEIEFTVYDKPSEHPVPIAMLWVRISDIVEELRRKKIEAEMTSAGWVSADRVGSRAPPPQFPMGTQSPQFAAPPTSPGSQEQNIMIPPQAPPPSQVVSQPVDGWFNLEPYGQIHLSFNFMKESRPQGMDRLGRKGAVRQRKEEVHEMYGHKFVQKQFYNIMRCALCGDFLKYSAGMQCEDCKYTCHTKCYTSVVTKCISKSNAETDPDEEKINHRIPHRFIPFSNLTANWCCHCGYMLPIGSKKNSRKCSECALTAHAQCVHLVPDFCGMSMAVANQILEGIRTQKKTHKDKASSMSERTLRPGSKTSFSSGSIAQTSTYSGSTAYTSIASPEATEAAKLMYSQTTPRPAGPDRTSTSSTTASAAAAAAMAPKHSSQPSQAGSIPDFGGNYGGSGSYGHPESREDEYNAQQQQGYGSPQQRKYNPADYANIGAYSSPPQAQHPQQQQQQQSPQQVSPMYQQNPQTPISKPQPVAPSYDNQVVPSASGVPVPTKKPLPSATDPGTGMRIGLDHFNFLAVLGKGNFGKVMLAETKKSRKLYAIKVLKKEFIIENDEVESIRSEKRVFLIANRERHPFLTNLHACFQTETRVYFVMEYISGGDLMLHIQRGMFGTKRAQFYAAEVCLALKYFHENGVIYRDLKLDNILLTLDGHIKIADYGLCKEDMWYGSTTSTFCGTPEFMAPEILLDKKYGRAVDWWAFGVLIYQMLLQQSPFRGEDEDEIYDAILADEPLYPIHMPRDSVSILQKLLTREPDQRLGSGPTDAQEIMSQPFFRNINWDDIYHKRVQPPFLPQIKSATDTSNFDSEFTSVTPVLTPVQSVLSQAMQEEFRGFSYTADFE
B2: COP9-2 (protein, UniProt F7VQD5 1-492)
chain: MSDDDFMQDSEEEYDFEYEDEEEEDNGDVDIENKYYNAKQTKTSDPEEALQEFLSIPPLEPEKGDWGFKALKQAIKMEFKLERYQEATDHYEELLTYVKSAVTRNYSEKSIDNMLNYIEKGYDDPKAVQCIEKFYSLTLQCFQSTNNERLWLKTNIKLARLLLDRKDYHAVARKLRELHNACRKPDGTDDPSKGTYSLEIYALEIQMYSETRNNNQLKVLYQKALKVRSAVPHPKIQGVIRECGGKMHMSEENWKEAQSDFFEAFRNYDEAGDLRRIQVLKYLLLTTMLMKSDINPFDSQEMKPYRNDPRISAMTELVDAYQRDDIYRYEDVLQKNTDLLADPFIAENIDEVTRNMRTKGVVKLIAPYTRMRVSWLAEKLRITEPEVMDILSFLIVDGRVKGRIDEHKGMLELESREDADHIQGITVLSEAVGNLFNAVFKSTDGFQAGQGDFMNSMADQIGGGDMGSLDDTMRSMGSGKRGRRVGLTQRAY
B3: PRO4/LEU1 (enzyme, UniProt Q6TWC4 1-368)
chain: MATHNIVVFGGDHCGPEVVVEAIKVLKSIETNSPSAGKFNLQNHLLGGASIDKHHDPLTDEALNAAKAADAVLLGAIGGPEWGTSSTVRPEQGLLKLRKELGTYGNLRPCNFASESLVDSSPLKAEVCRGTDFIVVRELTGGIYFGDRTEDDGSGYACDTEPYSRAEIERIARLAGFLALAKNPPAKVWSLDKANVLATSRLWRKTVTDVISKEFPQLQLEHQLIDSAAMLLVKNPRALNGVVITSNLFGDIISDEASVIPGSIGLLPSASLGGIPDGKGKCNGIYEPIHGSAPDISGKGIVNPVGTILSVAMMLRYSLNLPKEADAVEAAVKAAIDNGTKTKDLGGSATTSDMGNAVVAELEKILKA
B4: Eukaryotic translation initiation factor 3 (SMAC_00095) (protein, UniProt F7VK52 1-474)
chain: MSAFQQAQAPARAIDPDSDVEEEALVNDYKEQVQYEEDDAESTQLSLAAQTDDIQSRLAAAAQPLDYSAGLEVKFSSYDSYCSLFHFILNSEGPVDLEPPSYYWAWDVIDEFIYQFNSFSSYRARIARQGNNEEEITMLRENPNTWGCYSVLNVLYSLIQKSQITEQLAAMKRNEDPAAVAGEYGSKNLYKMLGYFSIIGLLRVHTLLGDFSLALKTLDDIELNKKAMFARVMAAHFTTYYYVGFSYMMMRRYADAIRMFSHILVYVSRTKNFQKNAQYDSITKKNDQMYALIAICVAFQPTRLDDTIHTALREKYGDQLLKLQRGGPEALPIYEELFRTACPKFISPVPPNFDEPEANIDPIEHHLSVFMDEVKTNMFNPTIKSYLRLYTTMDLKKLAGFLEVKPEELRGWLMVNKQRTKQLRWTDGGLLEGELVNVSDLDYALQGDLIHISEAKVGRKLVDWYLRNLSRTYA
B5: Eukaryotic translation initiation factor (SMAC_00367) (protein, UniProt F7VKX3 1-397)
chain: MATDKGLEDIPEGQIESNYDETVDSFDEMNLKPELLRGIYAYGFERPSAIQQRAIMPVIKGHDVIAQAQSGTGKTATFSISVLQKIDPTLKACQALILAPTRELAQQIQKVVVAIGDFMNIECHACIGGTSVRDDMKALQDGPQVVVGTPGRVHDMIQRRFLKTDSMKMFVLDEADEMLSRGFTEQIYDIFQLLPQSTQVVLLSATMPQDVLEVTTKFMREPVRILVKKDELTLEGIKQFYIAVEKEEWKLDTLSDLYETVTITQAVIFCNTRRKVDWLTDKLTARDFTVSAMHGDMDQAQRDLIMKEFRSGSSRVLIATDLLARGIDVQQVSLVINYDLPANRENYIHRIGRGGRFGRKGVAINFVTADDVRMMREIEQFYSTQIEEMPMNVADLI
B6: Pci domain protein (SMAC_00633) (protein, UniProt F7VLP0 1-434)
chain: MATPQLIFVDGTFAELAQEMADFIQVGEQVQPLLEQDKREDALDVIVKASHILNGAPEKDFTPAYNLLIHLVLQSEEPKKYLPTLCGNLLKPITGSPTHGFTLASNALTTIFNLLDKSNPLRFNVFMQIVRFIRQNSQFDLLKPRLKNVEGWLQEWKSDSDSQRKLYVEVSDAANDGGDQEESYFYLLKALATFDRDNQEEVTSDEAQKLSLRALRMAISSPTRFDFNDLRSLPSVQALNDSHPVYSQLLDIFTEQDLEDYNDFRDEHQGWIENEKLDHDKLQRKMRLLTFASLAASTPNREIPYASIAKALQIPDADVEMWTIDVIRSKLVEGRLSQKQKVFLVHRTTYRVFGEKQWRELGTRVDQFKTVVDRLVGVVRKAQSDVEAQREREQQELERKLANAGLDEPQQRGGNRGGRTGGQRQTRPRTDDDD
B7: Short chain dehydrogenase (SMAC_01191) (protein, UniProt F7VMI7 1-272)
chain: MSVYAVTGVSKGIGFEFLRQLSEDKDNLVIGLVRNKAATEKKVAAELGDRPNVHILHGDLTNYASLKEAAAETAKIVGDRGVDYLVANAGIVPEFDAYGPVSALADKIQEVDAGAAETFQTNVTGQLHLFNLFVPLIKKGKAKKVIAISSGVGDVDLTNQCEIDVGPIYAASKAALNIIVAKFNAEYKKEGILFLSISPGLVEVGRYANATPEQVNGLMGFVGKLASYAPHFKGPITPEESVKAVRSVWEKASIEEGHGGAFISHLGNKQWV
B8: Hsp70 family protein (SMAC_01267) (protein, UniProt F7VQB8 1-701)
chain: MSFSNSRLKGFGFGKRKSTASIQPNPDQQQSPTLPPGAAPQLPQLFQSRPGPAPSVASNSSQQSLPQMNHPGAGPRPPSYSANYPPGPPGPVGRTSPLTNQGPTRTPPSQMVGGPPPINTGAPPVSGYPPPVNMGGGPPPLQGGPPGYAGAQGYPPPPQPTGPVAPYRGNAAAEVEGNSRSKAQLIVGIDFGTTFSGVAFAFATNNEAKEDIITEWPGAGSYTKQKIPTVLYYDQYQKVVGWGPDIADALAPTGYPKPGVQKVEWFKLQLMLSGNTYIDPINLPPLPPGKSEIDVAADYLFKLRQAMRAALQKTLGEVFNREERNIRYYLTVPAIWNDAGKAATRAAAIQAGFLRDENDNRLTLVSEPEAAALFCSKTGLLNLKVHDAVLIVDCGGGTVDLIAYEVEDENPFTVAECTAGSGDSCGSTALNRNFSNILRTKIRKMKLPDGSKTAGRVYAKCIMDFENRIKADFRNNGQKWAVDVGIEAEFPEAGIEEGYMTFTNEEILQCFEPVVNRILELVRNQIIAIQAQNRTLQNILVVGGFGASEYLFQQIKLHVPPQFQSKVVRPMDSVAAIVKGAVTAGITERVITHRVARRHYLMATLQPFKEGYHPEAYRVPSLDGKDRCKFTRQIFVQKGQKVKIGEPVKVSFFRQVAPGATLMYEDILYACDDDVCPEYTKDPSKSLALLFDHGRILTVWK
B9: 60 s ribosomal protein l27e (SMAC_02509) (protein, UniProt F7VPS7 1-135)
chain: MKFLKTSRVCLVTRGRYAGKKVVIIQPVDNGSKTHPYGHAIVAGIERYPSKITRRMSKTRQEKRSKVKPFIKVINYNHLMPTRYTLELEGLKGSVSAETFKEVSQREDAKKTVKKVLEERYTSGKNRWFFTPLRF
B10: Xpg i-region protein (SMAC_02537) (protein, UniProt F7VWR6 1-745)
chain: MPVNFEDPWFKAQEVSYNVSELQDCAVAVDASYFLRQLLEQAENYNEPLLTALGGLTGIQARIQVELDNWLRNRTTPFFIFDGQPMVGQDEVTTKQGREIQKQTGVAWKLYSEGQAEAAVAAFGECASLYNIQALYPMLQDELRLRKLHFLVAPFNAAAQIAYLDMIDSDQCGGIMGPLELMLYPIQDCVIRSIEWTSNTCAAISKKNVMKVLNVSEPHFIDAFLMTGTPFLPPFPPLTDPTLVKSQPYNIVDAINMLRTADKSVTMVSTTFHDLIKNQDPTWLDKYRKAWMAVKHFVYIAESGVVKVHDADHLTNDNHEYLGLQIPWEMFHYLNAGLIGPRLLSWITHSQVYVLPTLDGSATEEYKKLVSSQLVPLEETALSLVLARLHRGIVYKDIKAKVWYDDNYSGTVLDHRHEARTKTNYGVQMATWGVIKEADIKQHFPGFEHGSIFSEVHALTKPDFVKLTFAKQENKLRNVESASVIKSICLWRYLHVRGYIDDQHNLTNWGKALDRAMVTLEPAVKKFPTVPYLYESVLVAMEMVRFGLLNGSLKVVEPLSLPMHGDDDDKSSLMLISRCATLLKLRHQANGYTGPLSKNLLTFHSLAGEVRSAERALMEAILASLFLYGQGQRKRDDSWELSHQLPFLFNPDVALGIAVKTYFDETINWKSEKEKTERLATFPDLFVPYSMAFSEDLEIACEFFKAVYAGLQTLDGQGISANDLKAWSKAKEYLSPRTLKDASGN
B11: Eukaryotic translation initiation factor 3 subunit f (SMAC_02708) (protein, UniProt F7VX88 1-370)
chain: MAVDQESFVHLARPLAPNVLGFGVSNAPLTVNIQPQAVFSIVDHAVRRDDRDTQATRVIGALVGVRSEDGSEVEVRSTFAIPHTENEDQVEVDVEYQKNMLALTLKASPRETLLGWYTTSHELNSFSALIQNFFASPETGTFPHPAVHLTIGTEAGAPIETKTYISAPVAVSPERAAESCLFIEVPHKLLFTDAERGALGSVAAAADVESRSAPVVSDIENLSQALETVSDLLERVSGFVGDVLDEERDGNHALGQYLMNALSLAPKVSNLAIENDFNNHIQDVLMVSYLANTIRTQIELSQRLATAKLDEGKEAGDKKEGEGAEGGDKKNDGQRGQRGQGGKRGGRGGGAGGRGGREQREPREPRESAE

target: PRO40-FLAG (Sordaria macrospora) (UniProt F7VLP8); assay: affinity purification with mass spectrometry; FLAG-AP with MudPIT of PRO40-FLAG from strain T184.2NS11 (Δpro40::pro40-3xFLAG) on anti-FLAG M2 gel, 250 mM NaCl extraction, 150 mM NaCl washes, 3xFLAG peptide elution; wildtype extract as control

binding, binds:
B1, B2, B3, B4, B5, B6, B7, B8, B9, B10, B11
